Patent US12116371B2, “Substituted pyridines as irreversible inhibitors of menin-MLL interaction” (BIOMEA FUSION, INC., priority 2018, dated 2024)

Assays:
[1] = system: MV4-11 (MLL-AF4) cells; experiment: Cell proliferation inhibition, CellTiterGlo viability assay, 4 days (Example 102); assay type: cell-based, human; settings: 4 days treatment
From the text: (§1) The objective of the study was to evaluate the ability of compounds of the invention, inhibitors of Menin/MLL interaction to inhibit cell proliferation. The proliferation inhibitory effect was investigated in two human MLL-leukemia cells selected on the bases of MLL fusion protein and listed in Table 1. HL-60 cell line was used as negative control (Table 3).
(§2) ATP is present in all metabolically active cells and is considered as a marker for cell viability and proliferation. The metabolic cell activity was determined using the CellTiter-Glo kit from Promega, an ATP monitoring system based on the production of luminescence by the reaction of ATP with added UltraGlo® recombinant luciferase (Kawano et al., 2016), according to the supplier's experimental recommendations.
(§3) The described assay evaluates the ability of representative compounds of invention to inhibit the cell proliferation in the human MLL-leukemia cells plus a negative control cell line.
(§4) The assay provides potency values (IC50) for each test compound at a single time point Day 4 (T4).
(§5) Seven concentrations of the NCEs (2.00E-05-6.67E-06-2.22E-06-7.41E-07-2.47E-07-8.23E-08-2.74E-08M), were assessed in duplicate in an individual test occasion in all the cell lines. MI-503 (Borkin et al., 2015) was used as reference compound and was tested at the same concentrations as the NCEs. 100% of proliferation is represented by the untreated cells (0.2% DMSO). The cell growth was monitored up to 4 days in culture.
(§6) MV4-11, MOLM-13 and HL-60 cells (see Table 2) were maintained in RPMI-1640 medium (Invitrogen, Cat. n. 618700, Batch n. 1965930) supplemented with 10% of Heat Inactivated FBS (Invitrogen, Cat n. 10500, Batch n. 08Q8078K) and 1% Pen-Strep (Invitrogen, Cat. N. 15140, Batch n. 1910859) and cultured at 37° C. in a humidified incubator with 5% CO2. All the cell lines grow in suspension and the cell density was maintained in a range of 2×10^5-1×10^6 viable cells/ml. Cells were pelleted at 130 g×5 min and conditioned medium was used to dilute the cell suspension.
(§7) Cells were plated in 96-well flat bottom microtiter plates at cell density of 15,000 cells/ml for HL-60, 1000 cells/ml for MOLM-13 and 10,000 cell/ml for MV4-11. Cells were treated with 0.2% DMSO (Sigma, D8418, batch n. SHBH4245V) or serial dilutions of compounds ([…]) in DMSO (0.2% final concentration). Cells were incubated in a 5% CO2 incubator at 37° C. for 4 days. A CellTiterGlo viability assay (Promega) was employed. Luminescence was read by using VictorV (Perkin Elmer) multilabel plate reader using the standard protocol for luminescence in 96 well plate. The experiment was performed in duplicate. […]
(§8) CRCs were analysed by GraphPad and IC50 values were calculated by non-linear regression using 4 parameter-logistic equation. […]

[2] = system: MOLM-13 (MLL-AF9) cells; experiment: as above; assay type: cell-based, human; settings: 4 days treatment
From the text: as §1, §2, §3, §4, §5, §6, §7, §8

| Structure (SMILES) | slope [1] | slope [2] |
| --- | --- | --- |
| C=CC(=O)NC1CN(c2ccnc(NC(=O)Nc3ccc(-c4cc5c(N6CCOCC6)ncnc5[nH]4)cc3)c2)C1 [Compound 1] | 1.6 | 4.4 |
| Cc1c(CN2CCC(Nc3ncnc4sc(CC(F)(F)F)cc34)CC2)ccc2c1cc(C#N)n2Cc1cn[nH]c1 [MI-503, reference compound] | 1.4 | 1.0 |
